Assay results published in publication PMC10356794.
These are yes or no findings as the source states them, for the method shown. For part of these data: In cells and extracts the contact can be indirect. Some results given as binding are weak or reduced against the parent protein; the word gives no strength. Where a sequence is shown, tags or fusion partners need not be part of it. One block for each binder: values may come before it.

Columns and labels:
[1] = target: T1, HA-tagged HSL (UniProt P54310); test: co-IP; HEK293T cells transiently transfected for 48 h with Musclin or Musclin-Fc and Flag-Tfr1 or HA-HSL; whole-cell lysates, immunoprecipitation, immunoblot
T1 sequence: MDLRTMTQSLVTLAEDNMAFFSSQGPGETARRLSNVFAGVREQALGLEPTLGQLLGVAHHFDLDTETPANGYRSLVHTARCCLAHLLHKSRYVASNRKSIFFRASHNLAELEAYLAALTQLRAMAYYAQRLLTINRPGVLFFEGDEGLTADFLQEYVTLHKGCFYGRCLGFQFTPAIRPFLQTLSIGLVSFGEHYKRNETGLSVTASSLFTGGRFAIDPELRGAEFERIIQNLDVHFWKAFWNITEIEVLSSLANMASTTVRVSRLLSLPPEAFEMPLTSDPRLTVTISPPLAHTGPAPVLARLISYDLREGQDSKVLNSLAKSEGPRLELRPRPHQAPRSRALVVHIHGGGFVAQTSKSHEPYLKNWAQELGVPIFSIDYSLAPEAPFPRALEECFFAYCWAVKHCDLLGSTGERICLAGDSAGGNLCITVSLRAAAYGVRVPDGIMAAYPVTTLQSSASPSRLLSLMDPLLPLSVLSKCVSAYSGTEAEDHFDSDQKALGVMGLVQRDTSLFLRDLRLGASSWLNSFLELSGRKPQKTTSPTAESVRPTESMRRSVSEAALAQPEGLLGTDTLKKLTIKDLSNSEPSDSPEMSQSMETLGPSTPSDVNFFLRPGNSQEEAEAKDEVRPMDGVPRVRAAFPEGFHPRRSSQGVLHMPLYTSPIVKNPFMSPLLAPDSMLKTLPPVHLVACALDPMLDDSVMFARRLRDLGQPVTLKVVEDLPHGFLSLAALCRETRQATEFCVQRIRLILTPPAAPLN

[2] = target: Flag-tagged Tfr1 (UniProt Q62351); test: as above
[3] = target: Tfr1, endogenous in mouse inguinal white adipose tissue (iWAT) (mouse (endogenous in iWAT)) (UniProt Q62351); test: SEAP fusion binding assay on frozen tissue sections; concentrated conditioned medium with SEAP or SEAP-Musclin on frozen mouse tissue sections, 45 min at room temperature; bound alkaline phosphatase developed with NBT/BCIP; iWAT of control and Tfr1-iAKO mice

binding [1]: no binding
binding [2]: binds
B1: Musclin-Fc (Fc-tagged Musclin), expressed in HEK293T (Fc fusion, UniProt P61364 26-130)
chain: FSVDLASQEFGTASLQSPPTAREEKSATELSAKLLRLDDLVSLENDVFETKKKRSFSGFGSPLDRLSAGSVEHRGKQRKAVDHSKKRFGIPMDRIGRNRLSSSRG

binding [3]: binds
B2: SEAP-Musclin fusion protein (ligand, UniProt P61364 26-130)
chain: B1 chain
